Laboratory results: PMC11335249
Results are given in words; binding and its absence hold for the method and conditions named. Binding seen in cells or lysates may run through a third protein.

The chains behind the UniProt entries cited, without tags or fusion partners. Where a name states a change or a piece, a line headed by the entry shows the natural chain unless it says otherwise. Residues count along the entry.
UniProt Q9P0T7, residues 21-183: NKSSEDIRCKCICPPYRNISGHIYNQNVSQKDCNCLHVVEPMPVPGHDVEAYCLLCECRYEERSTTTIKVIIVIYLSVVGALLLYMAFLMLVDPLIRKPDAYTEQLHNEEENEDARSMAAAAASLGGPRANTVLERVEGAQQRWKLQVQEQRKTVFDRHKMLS
UniProt Q14457: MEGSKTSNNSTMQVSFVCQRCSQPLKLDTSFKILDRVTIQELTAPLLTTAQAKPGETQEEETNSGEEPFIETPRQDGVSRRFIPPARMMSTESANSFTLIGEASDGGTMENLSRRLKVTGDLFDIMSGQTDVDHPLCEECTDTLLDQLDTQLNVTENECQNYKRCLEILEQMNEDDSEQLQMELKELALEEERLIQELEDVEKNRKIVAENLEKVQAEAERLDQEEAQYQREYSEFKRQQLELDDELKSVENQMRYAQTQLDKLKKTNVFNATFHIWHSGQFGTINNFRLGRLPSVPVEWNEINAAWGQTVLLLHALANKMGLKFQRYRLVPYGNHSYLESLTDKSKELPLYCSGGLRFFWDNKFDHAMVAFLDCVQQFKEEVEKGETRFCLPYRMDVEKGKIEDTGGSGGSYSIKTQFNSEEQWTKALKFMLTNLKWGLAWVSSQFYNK

What was measured:
[1] = biological target: TMEM9-VC (human) (UniProt Q9P0T7); assay: split reporter; BiFC with Venus fragments (VN, VC) in HeLa cells, 37 °C for 24 h, fixed with 4% PFA, confocal microscopy
[2] = biological target: TMEM9 ΔC, HA-tagged (human) (UniProt Q9P0T7); assay: co-IP; HEK293T co-transfected for 48 h with HA-tagged TMEM9 (or deletion mutants) and Beclin1-flag (or deletion mutants); IP with anti-HA antibody; blots with anti-flag and anti-HA

binding [1] | binding [2] | Substance
no binding |  | VN-Beclin1 ΔBH3 (from UniProt Q14457)
 | no binding | Beclin1-flag (from UniProt Q14457 1-450)
